Source: PubChem BioAssay AID652272 (Drosophila RNAi Screening Center, 2013)

Aim: 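Genes whose knock-down decreases or increases Hedgehog reporter output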 (primary screen)
System: Drosophila clone 8 (Cl8) cells
Reagent: long dsRNA against Drosophila genes
Measured: 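Plate reader light from a firefly reporter under a ptc promoter fragment that responds to Hedgehog, with Renilla light as transfection reference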
Scale: firefly Hh reporter signal: higher = more ptc reporter light; Renilla reference signal: higher = more Renilla control light
Hit rule: 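Hit when the z-score averaged over two replicates is under -2 or over +3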
Meaning of the calls: active = hit: reporter lowered or raised; inactive = not a hit
In all, the deposit lists about 21,000 reagents; below is an unselected part of those that have a named target and a result. Over the whole deposit, 503 (2.4%) were called active. 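Raw plate light values, not normalised; calls rest on replicate z-scores that were not deposited; hits include reporter decreases as well as increases.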 Names joined by + are all predicted targets of the reagent. The record does not give: the amount of reagent, the time to read-out.

AANATL2 [DRSC03227] — firefly Hh reporter signal, replicate 1 = 86116; firefly Hh reporter signal, replicate 2 = 31270; Renilla reference signal, replicate 1 = 2385; Renilla reference signal, replicate 2 = 3545; Call = inactive
CG15739 [DRSC19705] — firefly Hh reporter signal, replicate 1 = 73576; firefly Hh reporter signal, replicate 2 = 2.34e5; Renilla reference signal, replicate 1 = 2016; Renilla reference signal, replicate 2 = 8893; Call = inactive
y [DRSC18853] — firefly Hh reporter signal, replicate 1 = 78971; firefly Hh reporter signal, replicate 2 = 4.20e5; Renilla reference signal, replicate 1 = 1968; Renilla reference signal, replicate 2 = 14937; Call = inactive
CG6602 [DRSC10673] — firefly Hh reporter signal, replicate 1 = 47609; firefly Hh reporter signal, replicate 2 = 49060; Renilla reference signal, replicate 1 = 4441; Renilla reference signal, replicate 2 = 4416; Call = inactive
tnc [DRSC14647] — firefly Hh reporter signal, replicate 1 = 4.11e5; firefly Hh reporter signal, replicate 2 = 87162; Renilla reference signal, replicate 1 = 22384; Renilla reference signal, replicate 2 = 2489; Call = inactive
Pino [DRSC00038] — firefly Hh reporter signal, replicate 1 = 4.13e5; firefly Hh reporter signal, replicate 2 = 1.15e5; Renilla reference signal, replicate 1 = 21117; Renilla reference signal, replicate 2 = 4405; Call = inactive
Pino [DRSC00662] — firefly Hh reporter signal, replicate 1 = 1.01e5; firefly Hh reporter signal, replicate 2 = 86613; Renilla reference signal, replicate 1 = 4480; Renilla reference signal, replicate 2 = 4005; Call = inactive
Rgk2 [DRSC06503] — firefly Hh reporter signal, replicate 1 = 93111; firefly Hh reporter signal, replicate 2 = 60044; Renilla reference signal, replicate 1 = 2797; Renilla reference signal, replicate 2 = 4336; Call = inactive
snoRNA:U31:54Ec + snoRNA:snR38:54Eb + snoRNA:U27:54Eb + 8 more [DRSC06458] — firefly Hh reporter signal, replicate 1 = 1.13e5; firefly Hh reporter signal, replicate 2 = 65242; Renilla reference signal, replicate 1 = 3232; Renilla reference signal, replicate 2 = 4296; Call = inactive
CG14441 [DRSC17934] — firefly Hh reporter signal, replicate 1 = 34699; firefly Hh reporter signal, replicate 2 = 1.19e5; Renilla reference signal, replicate 1 = 1565; Renilla reference signal, replicate 2 = 5184; Call = inactive
CG5199 [DRSC11770] — firefly Hh reporter signal, replicate 1 = 79660; firefly Hh reporter signal, replicate 2 = 1.05e5; Renilla reference signal, replicate 1 = 3257; Renilla reference signal, replicate 2 = 3043; Call = inactive
CG31156 [DRSC15753] — firefly Hh reporter signal, replicate 1 = 1.14e5; firefly Hh reporter signal, replicate 2 = 97248; Renilla reference signal, replicate 1 = 4999; Renilla reference signal, replicate 2 = 3437; Call = inactive
CG31156 [DRSC15755] — firefly Hh reporter signal, replicate 1 = 5.21e5; firefly Hh reporter signal, replicate 2 = 1.15e5; Renilla reference signal, replicate 1 = 26577; Renilla reference signal, replicate 2 = 3136; Call = inactive
Prosbeta2R2 [DRSC12193] — firefly Hh reporter signal, replicate 1 = 87688; firefly Hh reporter signal, replicate 2 = 1.15e5; Renilla reference signal, replicate 1 = 3369; Renilla reference signal, replicate 2 = 3312; Call = inactive
Desat1 [DRSC16668] — firefly Hh reporter signal, replicate 1 = 47744; firefly Hh reporter signal, replicate 2 = 79655; Renilla reference signal, replicate 1 = 2172; Renilla reference signal, replicate 2 = 4947; Call = inactive
HP1e [DRSC16379] — firefly Hh reporter signal, replicate 1 = 78237; firefly Hh reporter signal, replicate 2 = 1.19e5; Renilla reference signal, replicate 1 = 2320; Renilla reference signal, replicate 2 = 2749; Call = inactive
SerRS [DRSC00496] — firefly Hh reporter signal, replicate 1 = 94311; firefly Hh reporter signal, replicate 2 = 80160; Renilla reference signal, replicate 1 = 5250; Renilla reference signal, replicate 2 = 3868; Call = inactive
CG12849 [DRSC04129] — firefly Hh reporter signal, replicate 1 = 1.32e5; firefly Hh reporter signal, replicate 2 = 59670; Renilla reference signal, replicate 1 = 3152; Renilla reference signal, replicate 2 = 2212; Call = inactive
Cad99C [DRSC15050] — firefly Hh reporter signal, replicate 1 = 78928; firefly Hh reporter signal, replicate 2 = 1.35e5; Renilla reference signal, replicate 1 = 2288; Renilla reference signal, replicate 2 = 6105; Call = inactive
Cad99C [DRSC16317] — firefly Hh reporter signal, replicate 1 = 1.41e5; firefly Hh reporter signal, replicate 2 = 88624; Renilla reference signal, replicate 1 = 3079; Renilla reference signal, replicate 2 = 2640; Call = inactive
Mi-2 [DRSC11222] — firefly Hh reporter signal, replicate 1 = 1.18e5; firefly Hh reporter signal, replicate 2 = 1.32e5; Renilla reference signal, replicate 1 = 4468; Renilla reference signal, replicate 2 = 3269; Call = inactive

A portion taken from the entries so far:
CG31156 [DRSC15755] — firefly Hh reporter signal, replicate 1 = 5.21e5; firefly Hh reporter signal, replicate 2 = 1.15e5; Renilla reference signal, replicate 1 = 26577; Renilla reference signal, replicate 2 = 3136; Call = inactive
Prosbeta2R2 [DRSC12193] — firefly Hh reporter signal, replicate 1 = 87688; firefly Hh reporter signal, replicate 2 = 1.15e5; Renilla reference signal, replicate 1 = 3369; Renilla reference signal, replicate 2 = 3312; Call = inactive
Desat1 [DRSC16668] — firefly Hh reporter signal, replicate 1 = 47744; firefly Hh reporter signal, replicate 2 = 79655; Renilla reference signal, replicate 1 = 2172; Renilla reference signal, replicate 2 = 4947; Call = inactive
